Measured values reported in PubChem BioAssay AID182 (DTP/NCI, 2004).
The list is a part of this screen's results and no random one: it covers a few groups of compounds. Not every dose and run of a compound is shown. T/C gives the treated animals as a percentage of the vehicle group. For survival time, this PubChem deposit counts one and a half times the control or more as active, and values a quarter to a half above the control carry no call in these data; other NCI protocols may use other cut-offs. Schedules are NCI's codes, taken here to give the interval after Q, in days (D) or hours (H), and the number of doses after X. Some T/C values are marked as having no survivor count here; that says nothing about deaths at the dose. Some doses were run more than once; their values stand side by side, smallest first.

System: BDF1 mice, P388/ADR leukemia ip, median survival T/C
Assay: NCI In Vivo Anticancer Drug Screen. Data for tumor model P388 Leukemia resistant to Adriamycin; NSC 123127, Developed at Scr 06 and 41 (intraperitoneal) in B6D2F1 (BDF1) mice
Conditions: T/C endpoint: median survival time, higher T/C = longer survival
Protocol: The antitumor activity of compounds was measured in mice bearing transplantable tumors. Survival or tumor size were measured and the results are expressed as the measurement made in the treated group (T) divided by the measurement made in the vehicle treated control group (C). The tumor model used in this assay is P388 Leukemia resistant to Adriamycin; NSC 123127, Developed at Scr 06 and 41 (intraperitoneal) in B6D2F1 (BDF1) mice

[1] = dose: 4.32 mg/kg/injection, schedule: Q04DX003 (ip), vehicle: saline + alcohol
[2] = dose: 7.2 mg/kg/injection, schedule: Q04DX003 (ip), vehicle: saline + alcohol
[3] = dose: 12.0 mg/kg/injection, schedule: Q04DX003 (ip), vehicle: saline + alcohol
[4] = dose: 2.88 mg/kg/injection, schedule: Q04DX003 (ip), vehicle: saline + alcohol
[5] = dose: 4.8 mg/kg/injection, schedule: Q04DX003 (ip), vehicle: saline + alcohol
[6] = dose: 8.0 mg/kg/injection, schedule: Q04DX003 (ip), vehicle: saline + alcohol

`CC(=O)OC[C@]12C[C@H](OC(=O)CC(C)C)C(C)=C[C@H]1OC1[C@H](O)[C@@H](OC(C)=O)[C@@]2(C)[C@@]12CO2` was tested, and the T/C (dose: 1.08 mg/kg/injection, schedule: Q04DX003 (ip), vehicle: saline + alcohol) was 122 [survivor count not shown] and 127 % of control [survivor count not shown], the T/C (dose: 1.8 mg/kg/injection, schedule: Q04DX003 (ip), vehicle: saline + alcohol) was 99 [survivor count not shown] and 124 % of control [survivor count not shown] and the T/C (dose: 2.16 mg/kg/injection, schedule: Q04DX003 (ip), vehicle: saline + alcohol) was 111 % of control [survivor count not shown]. The T/C (dose: 3.0 mg/kg/injection, schedule: Q04DX003 (ip), vehicle: saline + alcohol) was 99 [survivor count not shown] and 131 % of control [survivor count not shown], the T/C (dose: 3.6 mg/kg/injection, schedule: Q04DX003 (ip), vehicle: saline + alcohol) was 86 % of control [survivor count not shown] and the T/C (dose: 5.0 mg/kg/injection, schedule: Q04DX003 (ip), vehicle: saline + alcohol) was 90 % of control [survivor count not shown]. The T/C (dose: 540.0 micrograms/kg/injection, schedule: Q01DX009 (ip), vehicle: saline + alcohol) was 132 % of control [survivor count not shown], the T/C (dose: 648.0 micrograms/kg/injection, schedule: Q04DX003 (sc), vehicle: saline + alcohol) was 109 % of control [survivor count not shown] and the T/C (dose: 900.0 micrograms/kg/injection, schedule: Q01DX009 (ip), vehicle: saline + alcohol) was 88 % of control [survivor count not shown]. For the same compound, the T/C (dose: 1080.0 micrograms/kg/injection, schedule: Q04DX003 (sc), vehicle: saline + alcohol) was 109 % of control [survivor count not shown].

`C[C@@H](O)[C@H]1/C=C/C=C\C(=O)O[C@@H]2C[C@H]3O[C@@H]4[C@@H]5OC5(C)CCC4(COC(=O)[C@H]4O[C@]4(C)[C@@H](O)CO1)[C@]2(C)[C@]31CO1` (stereo partly drawn) was tested, and the T/C (dose: 1.94 mg/kg/injection, schedule: Q04DX003 (sc), vehicle: other) was 99 % of control [survivor count not shown], the T/C (dose: 2.59 mg/kg/injection, schedule: Q04DX003 (ip), vehicle: saline + alcohol) was 144 % of control [survivor count not shown] and the T/C (dose: 3.24 mg/kg/injection, schedule: Q04DX003 (sc), vehicle: other) was 116 % of control [survivor count not shown]. For the same compound, the T/C [1] was 149 % of control [survivor count not shown], the T/C (dose: 5.4 mg/kg/injection, schedule: Q04DX003 (sc), vehicle: other) was 111 % of control [survivor count not shown] and the T/C [2] was 158 % of control [survivor count not shown]. The T/C [3] was 146 % of control [survivor count not shown].

With `CC1=C[C@H]2O[C@@H]3C[C@H]4OC(=O)/C=C\C=C\C(C(C)O)OCC[C@@H](C)[C@H](O)C(=O)OC[C@@]2(CC1)[C@]4(C)[C@]31CO1` (stereo partly drawn) the T/C (dose: 0.32 mg/kg/injection, schedule: Q04DX003 (ip), vehicle: saline + alcohol) was 109 % of control [survivor count not shown], the T/C (dose: 0.54 mg/kg/injection, schedule: Q04DX003 (ip), vehicle: saline + alcohol) was 118 % of control [survivor count not shown] and the T/C (dose: 130.0 micrograms/kg/injection, schedule: Q04DX003 (ip), vehicle: saline + alcohol) was 99 % of control [survivor count not shown]. The T/C (dose: 216.0 micrograms/kg/injection, schedule: Q04DX003 (ip), vehicle: saline + alcohol) was 97 % of control [survivor count not shown], the T/C (dose: 360.0 micrograms/kg/injection, schedule: Q04DX003 (ip), vehicle: saline + alcohol) was 104 % of control [survivor count not shown] and the T/C (dose: 600.0 micrograms/kg/injection, schedule: Q04DX003 (ip), vehicle: saline + alcohol) was 90 % of control [survivor count not shown].

In the case of `CC(=O)O[C@@H]1[C@@H](O)[C@H]2O[C@@H]3C=C(C)C(=O)[C@@H](O)[C@]3(CO)[C@]1(C)[C@]21CO1`, the T/C (dose: 1.73 mg/kg/injection, schedule: Q04DX003 (ip), vehicle: saline + alcohol) was 100 % of control [survivor count not shown], the T/C [4] was 103 % of control [survivor count not shown] and the T/C [5] was 118 % of control [survivor count not shown]. The T/C [6] was 120 % of control [survivor count not shown].

With `CC(=O)OCC12CCC(C)=CC1OC1C(O)C(OC(C)=O)C2(C)C12CO2` (stereo not drawn) the T/C (dose: 1.3 mg/kg/injection, schedule: Q04DX003 (sc), vehicle: saline + alcohol) was 110 % of control [survivor count not shown], the T/C (dose: 1.8 mg/kg/injection, schedule: Q01DX009 (ip), vehicle: saline + alcohol) was 150 % of control [survivor count not shown] and the T/C (dose: 2.16 mg/kg/injection, schedule: Q04DX003 (sc), vehicle: saline + alcohol) was 128 % of control [survivor count not shown]. For the same compound, the T/C [4] was 128 [survivor count not shown] and 129 % of control [survivor count not shown], the T/C (dose: 3.0 mg/kg/injection, schedule: Q01DX009 (ip), vehicle: saline + alcohol) was 122 % of control [survivor count not shown] and the T/C (dose: 3.24 mg/kg/injection, schedule: Q04DX003 (ip), vehicle: other) was 144 % of control [survivor count not shown]. For the same compound, the T/C [1] was 103 [survivor count not shown] and 120 % of control [survivor count not shown], the T/C [5] was 124 [survivor count not shown] and 129 % of control [survivor count not shown] and the T/C (dose: 5.0 mg/kg/injection, schedule: Q01DX009 (ip), vehicle: saline + alcohol) was 108 % of control [survivor count not shown]. For the same compound, the T/C [2] was 130 % of control [survivor count not shown], the T/C [6] was 130 [survivor count not shown] and 137 % of control [survivor count not shown] and the T/C [3] was 98 % of control [survivor count not shown]. The T/C (dose: 13.33 mg/kg/injection, schedule: Q04DX003 (ip), vehicle: saline + alcohol) was 99 [survivor count not shown] and 124 % of control [survivor count not shown].

For `CC1=C[C@H]2O[C@@H]3C[C@H]4OC(=O)/C=C\C=C\C(C(C)O)OCC(O)C(C)CC(=O)OC[C@@]2(C[C@@H]1O)[C@]4(C)[C@@]31CO1` (stereo partly drawn), the T/C (dose: 540.0 micrograms/kg/injection, schedule: Q04DX003 (ip), vehicle: other) was 126 % of control [survivor count not shown], the T/C (dose: 900.0 micrograms/kg/injection, schedule: Q04DX003 (ip), vehicle: other) was 153 % of control [survivor count not shown] and the T/C (dose: 1500.0 micrograms/kg/injection, schedule: Q04DX003 (ip), vehicle: other) was 162 % of control [survivor count not shown].
